## Results of single-concentration screens

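Assay of Toxoplasma gondii numbers, read through their beta-galactosidase reporter with a colour substrate. Compounds at 50 µM. The record gives no direction; the compounds picked for IC50 retests had high values, so higher reads as fewer parasites. Size under these conditions: about 18,000 compounds, about 170 of them at 50% or above in at least one test.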

The filed quantity is “Percent Effect” (%). The record does not define 0% and 100%; most values in the screen are far below 50% and negative numbers occur (in some assays of this library far below -100). Compounds were drawn at random from those tested, without regard to their results.

{"smiles": "CCN1CCN(Cc2ccc(OC)c(OC)c2)CC1", "percent effect": 4.069}
{"smiles": "CN1CCC(CN(C)C(=O)c2cccc(F)c2F)C1", "stereo": "stereo unspecified", "percent effect": -1.06}
{"smiles": "FC(F)(F)Cn1cccn1", "percent effect": 3.605}
{"smiles": "CC(=O)c1ccc(F)cc1NCC(=O)NC1CC1", "percent effect": 5.192}
{"smiles": "Cc1cc(F)ccc1NC(=O)NCCCn1cnnc1", "percent effect": -10.32}
{"smiles": "O=C(CNC(=O)c1cc(F)cc(F)c1)Nc1nccs1", "percent effect": -0.5951}
{"smiles": "OC1CCN(C2CCNCC2)C1", "stereo": "stereo unspecified", "percent effect": -17.59}
{"smiles": "COC(=O)CSCC(=O)Nc1cc(F)cc(F)c1", "percent effect": -7.827}
{"smiles": "CCC(O)(CC)CCN", "percent effect": 2.785}
{"smiles": "O=C(Nc1nncs1)c1cccc(O)c1", "percent effect": -14.91}
{"smiles": "N#CC1(C(=O)NC2CCCCNC2=O)CCCCC1", "stereo": "stereo unspecified", "percent effect": -6.502}
{"smiles": "c1csc(CNC2CC2)n1", "percent effect": -1.622}
{"smiles": "O=S1(=O)CCCC1CNCc1cccc2cccnc12", "stereo": "stereo unspecified", "percent effect": -3.926}
{"smiles": "CN(C)Cc1cccc(NC(=O)c2[nH]ncc2Br)c1", "percent effect": 20.38}
{"smiles": "O=C(Cn1cccnc1=O)N1CCCC1c1cccs1", "stereo": "stereo unspecified", "percent effect": -1.063}
{"smiles": "COCC1CCN(Cc2ccc3c(c2)OCO3)C1", "stereo": "stereo unspecified", "percent effect": 6.548}
{"smiles": "O=C1NCCCC12CCCNC2", "stereo": "stereo unspecified", "percent effect": -4.544}
{"smiles": "CNc1nc(CNC(=O)Nc2c(C)noc2C)cs1", "percent effect": -3.536}
{"smiles": "CN(CC1CCOCC1)C(=O)c1ccc(CN)cc1", "percent effect": 0.3864}
{"smiles": "NCCOc1cccc(C(F)(F)F)n1", "percent effect": -9.845}
{"smiles": "CC1CCCN(C(=O)CSCC(N)=O)CC1", "stereo": "stereo unspecified", "percent effect": 5.253}
{"smiles": "CCCc1ccc(CN2Cc3cnn(CCO)c3C2)o1", "percent effect": -4.536}
{"smiles": "Cc1cc(C(=O)N(C)S(C)(=O)=O)nn1-c1ccccc1", "percent effect": -1.36}
{"smiles": "CNS(=O)(=O)c1ccc(NCc2ccco2)cc1OC", "percent effect": 1.576}
{"smiles": "CC(NCC1(C)OCCO1)c1cccc(F)c1", "stereo": "stereo unspecified", "percent effect": 7.262}
{"smiles": "N#CC1(C(=O)NCc2ccncc2)CCOCC1", "percent effect": -36.37}
{"smiles": "COC[C@]1(O)CCN(c2ccncc2F)CC1(C)C", "percent effect": 2.13}
{"smiles": "OC(CN1CCOC2(CCCC2)C1)c1ccccc1", "stereo": "stereo unspecified", "percent effect": 18.47}
{"smiles": "CC(N)c1c(F)cccc1F", "stereo": "stereo unspecified", "percent effect": -2.556}
{"smiles": "Cn1cnnc1SCCNC(=O)c1ccncc1F", "percent effect": -6.546}
{"smiles": "COc1cccc(NC(=O)CN2CCC(O)CC2)c1", "percent effect": -7.154}
{"smiles": "CCC(COC)NCc1nnc2n1CCCC2", "stereo": "stereo unspecified", "percent effect": -9.965}
{"smiles": "CC(CN)N(C)C(=O)Cc1cccc2ccccc12", "stereo": "stereo unspecified", "percent effect": 8.586}
{"smiles": "Cc1nc(CN(C)C2CCNC2)no1", "stereo": "stereo unspecified", "percent effect": -4.293}
{"smiles": "CCOC(=O)CSCC(=O)NC(=O)NCc1ccco1", "percent effect": -8.668}
{"smiles": "CN(Cc1ccccc1)C(=O)c1cnn(C)c1", "percent effect": 10.75}
{"smiles": "O=S(=O)(CCc1ccccc1)NCCCO", "percent effect": 32}
{"smiles": "Cc1cc(CSC(C)C(=O)NC2CC2)no1", "stereo": "stereo unspecified", "percent effect": -17.59}
{"smiles": "COc1ccc(OCC(=O)N2CCN(C)CC2)cc1", "percent effect": -7.573}

The first 4 entries again:

SMILES,percent effect
CCN1CCN(Cc2ccc(OC)c(OC)c2)CC1,4.069%
CN1CCC(CN(C)C(=O)c2cccc(F)c2F)C1 (stereo unspecified),-1.06%
FC(F)(F)Cn1cccn1,3.605%
CC(=O)c1ccc(F)cc1NCC(=O)NC1CC1,5.192%

From ChEMBL document CHEMBL3988442, “University of Dundee, Small-Polar-MMV Screening Library” (2021).